In PMC9077876:
No constants are given. Whether binding was seen depends on the method and setting. In cells and extracts the contact can be indirect. These calls come from enrichment with a bait or labelling near it, and not all partners need be listed.

Amino acid sequences for entries named in this document (tags omitted).
UniProt O15379: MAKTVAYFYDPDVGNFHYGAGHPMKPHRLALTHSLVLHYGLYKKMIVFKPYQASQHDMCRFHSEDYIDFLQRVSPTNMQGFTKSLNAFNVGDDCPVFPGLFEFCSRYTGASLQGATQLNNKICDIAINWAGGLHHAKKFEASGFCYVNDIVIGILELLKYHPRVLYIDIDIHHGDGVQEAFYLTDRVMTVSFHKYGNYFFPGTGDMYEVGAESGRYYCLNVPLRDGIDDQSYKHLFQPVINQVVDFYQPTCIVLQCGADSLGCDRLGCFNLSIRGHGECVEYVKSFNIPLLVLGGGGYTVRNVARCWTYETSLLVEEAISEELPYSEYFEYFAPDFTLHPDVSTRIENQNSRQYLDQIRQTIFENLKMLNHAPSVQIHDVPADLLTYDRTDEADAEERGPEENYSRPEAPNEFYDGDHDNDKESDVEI

Target: T1, CARM1 (human (endogenous in H1299, A549 and PC9)) (UniProt Q86X55)
T1 sequence: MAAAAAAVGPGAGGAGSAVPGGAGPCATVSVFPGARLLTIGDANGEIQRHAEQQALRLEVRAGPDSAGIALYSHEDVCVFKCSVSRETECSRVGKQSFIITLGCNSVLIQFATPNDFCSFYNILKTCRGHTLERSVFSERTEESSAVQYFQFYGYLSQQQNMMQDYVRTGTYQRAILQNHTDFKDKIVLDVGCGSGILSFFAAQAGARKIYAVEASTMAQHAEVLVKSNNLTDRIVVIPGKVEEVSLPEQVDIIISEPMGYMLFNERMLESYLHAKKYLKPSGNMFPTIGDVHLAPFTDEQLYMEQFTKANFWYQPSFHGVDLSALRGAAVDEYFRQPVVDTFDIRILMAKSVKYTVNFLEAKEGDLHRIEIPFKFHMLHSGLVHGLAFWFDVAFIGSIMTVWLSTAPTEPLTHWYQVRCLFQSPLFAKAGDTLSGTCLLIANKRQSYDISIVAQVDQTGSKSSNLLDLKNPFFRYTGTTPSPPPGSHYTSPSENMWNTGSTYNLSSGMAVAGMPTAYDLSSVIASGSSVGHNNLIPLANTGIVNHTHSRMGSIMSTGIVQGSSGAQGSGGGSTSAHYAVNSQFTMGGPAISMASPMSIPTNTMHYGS
Assay: affinity purification with mass spectrometry; immunoprecipitation with CARM1 antibody preabsorbed to protein A- and G-Sepharose beads in H1299, A549 and PC9 cells; 2D-LC-MS/MS

Substance: HDAC3 (from UniProt O15379 1-428)
- binding: binds
